These results are taken from patent publication US5196410A, “Transdermal flux enhancing compositions” (priority 1991, dated 1993).

Read-outs that look alike come from different tables or passages of the source.

For `Cc1cnc(C(=O)NCCc2ccc(S(=O)(=O)NC(=O)NC3CCCCC3)cc2)cn1` [Glipizide], the “Time Lag” value runs as follows: (20% v/v ethanol, 0.5% v/v Azone, 6.8 mg/ml) 3.3 h; (20% v/v ethanol, no Azone, 6.7 mg/ml) 0.5 h; (30% v/v ethanol, 0.5% v/v Azone, 8.1 mg/ml) 1.7 h; (30% v/v ethanol, no Azone, 8.2 mg/ml) 0.4 h; (55% v/v ethanol, 0.5% v/v Azone, 17.5 mg/ml) 3.6 h; (55% v/v ethanol, no Azone, 17.9 mg/ml) 4.6 h. Moreover, where the note is “30% ethanol, 0.5% v/v Azone vs 55% ethanol”, the “transport rate, times greater than 55% ethanol vehicle” value is on record as “approximately 3.5 times”.
